Source: the supplement of paper PMC10849652
The list shows a part of the results.

Sequences of proteins named here, by UniProt entry; tags and fusion partners are left off. A change or cut given only in a name is not applied to a line headed by its entry.
UniProt P17275: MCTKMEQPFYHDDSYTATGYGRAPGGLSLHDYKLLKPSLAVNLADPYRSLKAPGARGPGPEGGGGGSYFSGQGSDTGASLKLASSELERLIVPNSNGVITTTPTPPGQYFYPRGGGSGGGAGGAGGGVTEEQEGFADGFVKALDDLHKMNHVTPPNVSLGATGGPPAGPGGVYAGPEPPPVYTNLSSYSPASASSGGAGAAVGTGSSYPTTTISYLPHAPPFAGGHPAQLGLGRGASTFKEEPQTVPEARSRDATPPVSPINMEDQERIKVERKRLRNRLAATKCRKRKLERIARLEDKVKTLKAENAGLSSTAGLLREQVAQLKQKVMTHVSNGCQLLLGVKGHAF
UniProt Q1ED39: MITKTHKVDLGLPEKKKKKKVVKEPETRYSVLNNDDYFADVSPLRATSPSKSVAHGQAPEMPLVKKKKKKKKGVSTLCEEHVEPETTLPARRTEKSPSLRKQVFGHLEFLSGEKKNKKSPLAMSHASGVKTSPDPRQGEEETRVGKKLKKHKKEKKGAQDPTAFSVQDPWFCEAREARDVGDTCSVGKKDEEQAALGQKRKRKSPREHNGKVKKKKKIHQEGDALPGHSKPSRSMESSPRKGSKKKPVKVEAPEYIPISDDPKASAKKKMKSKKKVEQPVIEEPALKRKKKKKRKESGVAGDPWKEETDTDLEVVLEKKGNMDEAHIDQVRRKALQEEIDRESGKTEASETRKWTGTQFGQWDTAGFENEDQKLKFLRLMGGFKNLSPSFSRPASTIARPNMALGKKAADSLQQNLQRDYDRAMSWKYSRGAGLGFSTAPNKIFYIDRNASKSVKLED
UniProt Q9BVG8: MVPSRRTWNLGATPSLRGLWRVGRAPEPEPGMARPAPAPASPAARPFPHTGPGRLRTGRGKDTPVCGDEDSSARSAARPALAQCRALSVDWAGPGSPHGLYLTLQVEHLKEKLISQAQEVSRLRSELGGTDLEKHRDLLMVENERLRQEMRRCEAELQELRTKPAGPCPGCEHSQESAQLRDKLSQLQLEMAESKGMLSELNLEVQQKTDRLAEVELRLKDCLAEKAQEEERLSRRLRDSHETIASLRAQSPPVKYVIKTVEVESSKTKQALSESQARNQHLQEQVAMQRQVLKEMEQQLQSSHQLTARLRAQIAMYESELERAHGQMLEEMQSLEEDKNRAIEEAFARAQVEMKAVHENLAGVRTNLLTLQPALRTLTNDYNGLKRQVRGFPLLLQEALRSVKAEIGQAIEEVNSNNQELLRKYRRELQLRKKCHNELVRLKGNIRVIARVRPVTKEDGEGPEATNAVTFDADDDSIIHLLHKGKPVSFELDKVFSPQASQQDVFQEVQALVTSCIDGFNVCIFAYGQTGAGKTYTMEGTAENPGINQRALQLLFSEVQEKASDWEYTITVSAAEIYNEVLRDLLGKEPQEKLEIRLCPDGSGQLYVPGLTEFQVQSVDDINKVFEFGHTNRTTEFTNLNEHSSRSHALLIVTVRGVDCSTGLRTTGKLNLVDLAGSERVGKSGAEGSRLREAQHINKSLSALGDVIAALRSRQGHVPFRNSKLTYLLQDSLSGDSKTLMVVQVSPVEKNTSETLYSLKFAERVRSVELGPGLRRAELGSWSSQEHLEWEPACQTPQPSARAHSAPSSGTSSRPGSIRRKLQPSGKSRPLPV
UniProt Q15058: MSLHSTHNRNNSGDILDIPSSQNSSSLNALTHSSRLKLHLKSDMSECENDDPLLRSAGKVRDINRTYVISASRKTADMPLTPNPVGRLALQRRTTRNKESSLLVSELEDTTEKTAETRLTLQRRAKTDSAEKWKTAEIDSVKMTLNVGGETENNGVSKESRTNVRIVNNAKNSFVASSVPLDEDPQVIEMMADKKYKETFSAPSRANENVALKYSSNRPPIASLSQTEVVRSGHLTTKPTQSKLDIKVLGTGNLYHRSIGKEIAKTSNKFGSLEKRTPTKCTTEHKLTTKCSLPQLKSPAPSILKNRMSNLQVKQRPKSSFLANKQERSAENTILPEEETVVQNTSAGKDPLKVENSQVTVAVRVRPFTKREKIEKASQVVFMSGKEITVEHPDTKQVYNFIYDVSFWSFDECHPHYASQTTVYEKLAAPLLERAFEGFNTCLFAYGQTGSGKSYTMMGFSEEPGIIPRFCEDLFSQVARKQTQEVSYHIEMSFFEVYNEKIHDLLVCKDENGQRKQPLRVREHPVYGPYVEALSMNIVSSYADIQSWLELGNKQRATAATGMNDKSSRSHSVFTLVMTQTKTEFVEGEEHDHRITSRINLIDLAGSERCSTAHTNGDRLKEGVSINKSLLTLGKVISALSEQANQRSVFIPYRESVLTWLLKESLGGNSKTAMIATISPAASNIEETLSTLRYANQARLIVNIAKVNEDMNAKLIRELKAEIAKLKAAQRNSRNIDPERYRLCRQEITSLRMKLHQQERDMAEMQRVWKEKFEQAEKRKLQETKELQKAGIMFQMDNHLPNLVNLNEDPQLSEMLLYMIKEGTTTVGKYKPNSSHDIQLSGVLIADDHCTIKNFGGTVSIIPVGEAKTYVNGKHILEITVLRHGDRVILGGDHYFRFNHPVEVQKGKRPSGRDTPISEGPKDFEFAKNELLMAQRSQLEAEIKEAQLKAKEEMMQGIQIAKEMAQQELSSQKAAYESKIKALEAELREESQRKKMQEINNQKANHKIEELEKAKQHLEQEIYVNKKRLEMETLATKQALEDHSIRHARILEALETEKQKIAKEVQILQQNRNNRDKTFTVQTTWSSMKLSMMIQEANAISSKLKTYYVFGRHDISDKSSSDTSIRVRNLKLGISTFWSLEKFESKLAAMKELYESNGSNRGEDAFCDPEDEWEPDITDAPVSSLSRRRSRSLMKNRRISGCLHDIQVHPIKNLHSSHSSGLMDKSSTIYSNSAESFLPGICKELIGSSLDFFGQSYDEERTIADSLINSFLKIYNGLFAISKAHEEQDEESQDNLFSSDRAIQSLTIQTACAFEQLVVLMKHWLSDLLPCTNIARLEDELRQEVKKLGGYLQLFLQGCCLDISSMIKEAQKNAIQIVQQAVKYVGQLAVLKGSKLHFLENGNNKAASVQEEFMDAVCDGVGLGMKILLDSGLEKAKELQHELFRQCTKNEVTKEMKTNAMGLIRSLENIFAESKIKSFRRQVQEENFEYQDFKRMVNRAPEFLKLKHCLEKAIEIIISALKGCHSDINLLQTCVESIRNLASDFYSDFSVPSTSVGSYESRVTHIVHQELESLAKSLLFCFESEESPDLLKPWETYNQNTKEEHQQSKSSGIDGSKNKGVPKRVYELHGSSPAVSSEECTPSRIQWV
UniProt Q8N6L1: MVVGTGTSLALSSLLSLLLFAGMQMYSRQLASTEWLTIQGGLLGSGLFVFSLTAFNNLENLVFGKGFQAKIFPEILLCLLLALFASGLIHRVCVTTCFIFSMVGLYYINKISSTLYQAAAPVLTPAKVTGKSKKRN
UniProt Q8WYB5, whole entry, looked up: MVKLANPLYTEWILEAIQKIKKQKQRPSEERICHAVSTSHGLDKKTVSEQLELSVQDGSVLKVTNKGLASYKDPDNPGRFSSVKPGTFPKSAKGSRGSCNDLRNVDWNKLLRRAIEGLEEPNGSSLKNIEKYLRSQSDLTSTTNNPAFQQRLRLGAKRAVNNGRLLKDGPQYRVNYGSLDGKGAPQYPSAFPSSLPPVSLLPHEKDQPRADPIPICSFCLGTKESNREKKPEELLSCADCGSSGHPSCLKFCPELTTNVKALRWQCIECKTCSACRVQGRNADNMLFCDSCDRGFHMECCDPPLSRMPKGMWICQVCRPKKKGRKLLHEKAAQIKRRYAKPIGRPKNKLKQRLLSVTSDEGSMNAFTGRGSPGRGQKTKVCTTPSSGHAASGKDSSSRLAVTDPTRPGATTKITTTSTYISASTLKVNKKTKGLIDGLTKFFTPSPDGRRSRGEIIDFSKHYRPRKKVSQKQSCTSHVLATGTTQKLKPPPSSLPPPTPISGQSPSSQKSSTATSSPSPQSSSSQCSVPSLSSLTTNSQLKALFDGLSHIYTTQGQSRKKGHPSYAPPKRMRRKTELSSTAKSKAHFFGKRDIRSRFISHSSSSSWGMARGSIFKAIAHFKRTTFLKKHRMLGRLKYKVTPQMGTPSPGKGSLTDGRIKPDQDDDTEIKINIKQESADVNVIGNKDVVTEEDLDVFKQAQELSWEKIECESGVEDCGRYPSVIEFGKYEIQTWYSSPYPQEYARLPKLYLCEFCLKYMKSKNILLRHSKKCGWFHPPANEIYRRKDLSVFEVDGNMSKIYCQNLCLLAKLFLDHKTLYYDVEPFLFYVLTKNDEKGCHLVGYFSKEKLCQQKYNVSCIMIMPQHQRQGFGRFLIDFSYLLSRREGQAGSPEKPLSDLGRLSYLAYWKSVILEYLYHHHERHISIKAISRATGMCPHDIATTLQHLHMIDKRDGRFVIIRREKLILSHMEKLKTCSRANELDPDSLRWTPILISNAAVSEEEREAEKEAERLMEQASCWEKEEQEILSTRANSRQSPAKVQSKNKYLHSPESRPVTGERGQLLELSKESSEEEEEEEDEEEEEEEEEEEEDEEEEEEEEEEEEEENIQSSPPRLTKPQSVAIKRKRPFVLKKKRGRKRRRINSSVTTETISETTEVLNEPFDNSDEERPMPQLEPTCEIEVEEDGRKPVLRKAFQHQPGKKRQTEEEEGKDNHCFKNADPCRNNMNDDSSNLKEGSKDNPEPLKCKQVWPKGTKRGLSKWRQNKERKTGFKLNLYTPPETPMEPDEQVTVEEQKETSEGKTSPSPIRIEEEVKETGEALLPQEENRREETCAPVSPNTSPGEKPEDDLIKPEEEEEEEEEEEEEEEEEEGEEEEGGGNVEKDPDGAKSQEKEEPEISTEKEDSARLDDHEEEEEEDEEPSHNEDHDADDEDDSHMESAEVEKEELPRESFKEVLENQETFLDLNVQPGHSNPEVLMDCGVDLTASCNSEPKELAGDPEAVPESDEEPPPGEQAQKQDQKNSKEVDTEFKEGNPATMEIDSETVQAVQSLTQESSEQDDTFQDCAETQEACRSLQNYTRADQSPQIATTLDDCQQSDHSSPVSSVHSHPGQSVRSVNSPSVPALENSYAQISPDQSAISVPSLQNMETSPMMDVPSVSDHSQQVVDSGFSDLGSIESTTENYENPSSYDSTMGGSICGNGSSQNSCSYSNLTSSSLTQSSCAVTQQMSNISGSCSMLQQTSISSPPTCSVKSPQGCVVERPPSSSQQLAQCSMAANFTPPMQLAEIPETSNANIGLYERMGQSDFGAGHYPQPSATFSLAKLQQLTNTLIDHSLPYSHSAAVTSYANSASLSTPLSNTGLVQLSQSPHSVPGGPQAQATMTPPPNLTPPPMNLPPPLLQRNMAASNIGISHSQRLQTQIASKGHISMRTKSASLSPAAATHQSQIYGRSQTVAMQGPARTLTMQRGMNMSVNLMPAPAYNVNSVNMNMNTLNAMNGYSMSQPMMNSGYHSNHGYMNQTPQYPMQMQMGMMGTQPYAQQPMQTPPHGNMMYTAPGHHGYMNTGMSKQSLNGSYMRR
UniProt P01042: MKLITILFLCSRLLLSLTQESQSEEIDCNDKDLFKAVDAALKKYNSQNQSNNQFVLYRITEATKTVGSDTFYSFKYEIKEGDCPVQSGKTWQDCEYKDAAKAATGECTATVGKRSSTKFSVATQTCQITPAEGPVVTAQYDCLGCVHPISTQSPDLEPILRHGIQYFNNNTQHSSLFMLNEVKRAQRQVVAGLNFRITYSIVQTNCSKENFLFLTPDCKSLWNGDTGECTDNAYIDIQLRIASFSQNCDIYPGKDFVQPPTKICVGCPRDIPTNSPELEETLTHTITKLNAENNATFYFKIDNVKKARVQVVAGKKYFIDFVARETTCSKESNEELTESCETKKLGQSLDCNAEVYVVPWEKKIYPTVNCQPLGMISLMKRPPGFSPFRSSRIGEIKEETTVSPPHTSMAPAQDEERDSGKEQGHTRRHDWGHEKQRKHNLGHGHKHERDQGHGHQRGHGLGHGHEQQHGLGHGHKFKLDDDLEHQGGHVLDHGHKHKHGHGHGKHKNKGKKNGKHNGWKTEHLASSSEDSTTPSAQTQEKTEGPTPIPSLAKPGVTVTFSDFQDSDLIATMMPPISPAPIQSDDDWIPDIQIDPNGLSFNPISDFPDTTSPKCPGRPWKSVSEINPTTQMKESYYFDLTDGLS
UniProt Q9BXK1: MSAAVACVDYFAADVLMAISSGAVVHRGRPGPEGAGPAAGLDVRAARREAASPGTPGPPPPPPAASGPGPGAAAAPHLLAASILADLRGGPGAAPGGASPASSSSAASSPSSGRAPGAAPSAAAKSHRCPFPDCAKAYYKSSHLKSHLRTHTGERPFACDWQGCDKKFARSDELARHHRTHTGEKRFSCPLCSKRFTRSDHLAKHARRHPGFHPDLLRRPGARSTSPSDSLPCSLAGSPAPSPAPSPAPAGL
UniProt Q9H910: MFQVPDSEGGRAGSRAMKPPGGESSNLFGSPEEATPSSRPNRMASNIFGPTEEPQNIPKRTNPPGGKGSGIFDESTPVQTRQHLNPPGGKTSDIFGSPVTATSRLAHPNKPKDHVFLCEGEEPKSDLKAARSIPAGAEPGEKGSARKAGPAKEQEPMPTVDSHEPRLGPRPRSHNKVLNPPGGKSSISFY

Compound: CCn1c(C(=O)N(C2CC2)C2CC2)cc2c3c(ncn3C)c(Nc3cc(C)n(C)n3)nc21
Experiment: log2 fold change, soluble protein after heating vs DMSO (PISA); higher = thermal stabilisation; K562 cells, 10 uM, 30 min; active = over 0.2 and 3.5 SD of the protein, either way, in both replicates (recomputed)
Outline: (§1)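 Soluble protein was quantified by TMTpro 16plex LC-MS/MS after channel sums were equalised. It was obtained as the supernatant after 21,000xg for 90 min from pooled aliquots of K562 cells (2×10^6 cells/mL, 10 μM compound, 30 min) heated for 3 min across 48°C-58°C and extracted in PBS with 0.5% NP-40 at 4°C. Thermal stability values are relative to control samples and come from duplicates. They are given as log2 fold changes.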

log2 fold change, inactive:
JUNB (UniProt P17275) 0.089
KCNN4 (UniProt O15554) -0.033
KNOP1 (UniProt Q1ED39) -0.283
KIF13B (UniProt Q9NQT8) 0.019
KIFC3 isoform 6 (UniProt Q9BVG8) -0.123
KIAA1755 (UniProt Q5JYT7) 0.032
KAT7 (UniProt O95251) -0.172
KIF14 (UniProt Q15058) -0.059
KBTBD4 isoform 2 (UniProt Q9NVX7) -0.067
KRTCAP2 isoform 2 (UniProt Q8N6L1) 0.031
KAT6B (UniProt Q8WYB5) 0.072
KIF26A (UniProt Q9ULI4) 0.064
KNG1 (UniProt P01042) 0.033
KLF16 (UniProt Q9BXK1) 0.023
JPT2 isoform 2 (UniProt Q9H910) 0.017

Compound: CCn1cc(-c2ccnc3[nH]c(-c4cccc(CN(C)C)c4)cc23)c(-c2ccc(NC(=O)N(C)C)cc2)n1
Experiment: as above
Outline: as §1

log2 fold change, inactive:
KSR1 (UniProt Q8IVT5) 0.178
KIF3A (UniProt Q9Y496) -0.093
KPNB1 (UniProt Q14974) 0.016
JUNB (UniProt P17275) 0.005
KLHL18 (UniProt O94889) -0.01
KNOP1 (UniProt Q1ED39) 0.023
KIFBP (UniProt Q96EK5) 0.017
KIF13B (UniProt Q9NQT8) 0.04
KCNK5 (UniProt O95279) 0.047
KPNA1 (UniProt P52294) 0.004
KIFC3 isoform 6 (UniProt Q9BVG8) -0.136
KATNBL1 (UniProt Q9H079) 0.053
KHDC4 (UniProt Q7Z7F0) -0.057
KNTC1 (UniProt P50748) -0.007
KIF3B (UniProt O15066) 0.159
KLC2 (UniProt Q9H0B6) 0.02
KRTCAP2 isoform 2 (UniProt Q8N6L1) 0.056
KIZ (UniProt Q2M2Z5) -0.202
KAT6B (UniProt Q8WYB5) -0.04
KLF1 (UniProt Q13351) 0.175
KNG1 (UniProt P01042) 0.059
KEAP1 (UniProt Q14145) 0.019
KLF16 (UniProt Q9BXK1) 0.055
KIF1B isoform 4 (UniProt O60333) -0.005
KIF11 (UniProt P52732) 0.023
JMJD6 isoform 3 (UniProt Q6NYC1) -0.009

Compound: CN(C)CC(=O)Nc1ccc2[nH]c(=O)c3ccccc3c2c1
Experiment: as above
Outline: as §1

log2 fold change, inactive:
KSR1 (UniProt Q8IVT5) 0.009
KIF3A (UniProt Q9Y496) 0.032
KPNB1 (UniProt Q14974) 0.048
JUNB (UniProt P17275) -0.108
KCNN4 (UniProt O15554) -0.106
KLHL18 (UniProt O94889) -0.073
KNOP1 (UniProt Q1ED39) -0.04
KIFBP (UniProt Q96EK5) 0.038
KPNA1 (UniProt P52294) 0.055
KIFC3 isoform 6 (UniProt Q9BVG8) -0.044
KIAA1755 (UniProt Q5JYT7) -0.129
KAT7 (UniProt O95251) 0.027
KATNBL1 (UniProt Q9H079) 0.008
KIF14 (UniProt Q15058) 0.023
KBTBD4 isoform 2 (UniProt Q9NVX7) -0.093
KHDC4 (UniProt Q7Z7F0) 0.137
KNTC1 (UniProt P50748) 0.037
KIF3B (UniProt O15066) -0.078
KLC2 (UniProt Q9H0B6) -0.003
KRTCAP2 isoform 2 (UniProt Q8N6L1) 0.063
KAT6B (UniProt Q8WYB5) -0.032
KLF1 (UniProt Q13351) 0.013
KNG1 (UniProt P01042) -0.153
KEAP1 (UniProt Q14145) 0.033
KLF16 (UniProt Q9BXK1) 0.086
KIF1B isoform 4 (UniProt O60333) 0.123
KIF11 (UniProt P52732) 0.041
JMJD6 isoform 3 (UniProt Q6NYC1) -0.006
JPT2 isoform 2 (UniProt Q9H910) 0.022
